Source: the supplement of paper PMC7877785
± gives the uncertainty stated by the source. The uncertainty is large for many entries.

Assay: self-splicing fitness, log relative to wild type (ln ratio); higher = more splicing; Tetrahymena group I intron in knt gene, E. coli kanamycin selection, DiMSum; sequences stand for … in CUCUCU…GGAGGGAAAAGUUAUCAGGCAUGCACCUGGUAGCUAGUCUUUAAACCAAUAGAUUGCAUCGGUUUAAAAGGCAAGACCGUCAAAUUGCGGGAAAGGGGUCAACAGCCGUUCAGUACCAAGUCUCAGGGGAAACUUUGAGAUGGCCUUGCAAAGGGUAUGGUAAUAAGCUGACGGACAUGGUCCUAACCACGCAGCCAAGUCCUAAGUCAACAGAUCUUCUGUUGAUAUGGAUGCAGUUCACAGACUAAAUGUCGGUCGGGGAAGAUGUAUUCUUCUCAUAAGAUAUAGUCGGACCUCUCCUUAAUGGGAGCUAGCGGAUGAAGUGAUGCAACACUGGAGCCGCUGGGAACUAAUUUGUAUGCGAAAGUAUAUUGAUUAGUUUUGGAGUACUCGUGGUCG
Summary of the method: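 DiMSum derived fitness as the error-weighted combination of fold changes across replicates, kanamycin versus no kanamycin, normalised to wild type. E. coli BL21(DE3) held the library, which randomised all eight P1ex-region intron nucleotides within the knt kanamycin-resistance gene on pET-22b(+). Six replicate transformations grew overnight at 37°C or 30°C on LB agar with or without 25 μg/mL kanamycin, also containing 100 μg/mL carbenicillin, 50 μM IPTG and 0.2% rhamnose, and pooled colonies were amplicon-sequenced on an Illumina HiSeq 2500.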

Sequence | self-splicing fitness (ln) (30 °C) | self-splicing fitness (ln) (37 °C)
UAAGAGCAAUAUUACGCUAC | -3.31 ± 0.74 | -1 ± 0.92
CCGGAGCAAUAUUACGACGG | -4.33 ± 0.51 | -3.99 ± 0.51
UAGUAGCAAUAUUACGCUAC |  | -1.71 ± 0.64
UUACAGCAAUAUUACGCCCC | -1.94 ± 0.68 | 1.1 ± 0.63
GUGCAGCAAUAUUACGGAGA | -4.17 ± 1.1 | 
CGGGAGCAAUAUUACGAGGC | -4.57 ± 1 | -1.92 ± 0.51
AGCUAGCAAUAUUACGCCGA |  | -0.779 ± 0.54
GGAGAGCAAUAUUACGGAAC | -2.53 ± 0.79 | 
GACUAGCAAUAUUACGAUGG | -3.49 ± 0.13 | -2.24 ± 0.12
GAGGAGCAAUAUUACGUUCC | -4.08 ± 0.73 | 
UAUCAGCAAUAUUACGACUA | 0.123 ± 0.068 | 0.517 ± 0.095
CCAGAGCAAUAUUACGCUUA |  | -2.98 ± 0.61
GAUAAGCAAUAUUACGGUCC | -3.22 ± 0.54 | 
UAUGAGCAAUAUUACGCGCC |  | -2.51 ± 0.63
GGUGAGCAAUAUUACGUAUA | -3.76 ± 0.29 | -3.25 ± 0.37
CAUUAGCAAUAUUACGCCGC |  | -2.52 ± 1.1
GUGUAGCAAUAUUACGAGGA |  | -2.17 ± 0.56
AAGGAGCAAUAUUACGACGG | -3.96 ± 1 | 
UGCGAGCAAUAUUACGAGAG |  | -3.58 ± 0.51
GGGGAGCAAUAUUACGCCAU | -4.2 ± 0.52 | 
ACGCAGCAAUAUUACGGGCC | -1.28 ± 0.091 | -0.893 ± 0.12
ACUCAGCAAUAUUACGCACC | -1.19 ± 0.094 | 0.495 ± 0.11
CUGCAGCAAUAUUACGGACC | -5.3 ± 0.36 | -2.18 ± 0.31

Sequence | self-splicing fitness (ln) (30 °C) | self-splicing fitness (ln) (37 °C)
UGAGAGCAAUAUUACGGUUU |  | -3.27 ± 0.74
CUCUAGCAAUAUUACGCAAA | -3.54 ± 0.73 | -2.39 ± 0.77
AGUCAGCAAUAUUACGGUGA | -1.87 ± 0.12 | -0.192 ± 0.096
UAUGAGCAAUAUUACGAGAU | -2.83 ± 0.57 | 
GCGGAGCAAUAUUACGAUCC | -2.57 ± 0.63 | 
UUUGAGCAAUAUUACGAAAG | -4.44 ± 0.51 | 
UGAUAGCAAUAUUACGCGCU | -0.577 ± 0.11 | -0.36 ± 0.14
UGCCAGCAAUAUUACGGAAC |  | -3.1 ± 0.6
CUCUAGCAAUAUUACGGUUA | -3.73 ± 0.75 | 
GUGUAGCAAUAUUACGAAUU | -2.33 ± 0.064 | -1.85 ± 0.097
GACGAGCAAUAUUACGACGG |  | -1.93 ± 0.81
CAUGAGCAAUAUUACGCUUA | -3.77 ± 0.43 | -2.19 ± 0.25
UUCUAGCAAUAUUACGUCAC | -4.66 ± 0.59 | 
CCAGAGCAAUAUUACGCACC | -4.59 ± 0.59 | 
UGUGAGCAAUAUUACGCCAU | -0.868 ± 1 | -2.87 ± 0.75
CGCGAGCAAUAUUACGGUGC | -3.57 ± 0.52 | 
CGAGAGCAAUAUUACGUCUA |  | -1.99 ± 0.66
CUUUAGCAAUAUUACGGCGA |  | -1.99 ± 0.5
AGGCAGCAAUAUUACGCGAC | -3.7 ± 0.62 | -2.08 ± 0.64
CGUCAGCAAUAUUACGCGAC |  | -1.61 ± 0.6
GGAUAGCAAUAUUACGACAA | -0.923 ± 0.12 | -0.865 ± 0.14
CGAGAGCAAUAUUACGCCCG |  | -3.27 ± 1
UACGAGCAAUAUUACGCAGU | -3.15 ± 0.26 | -2.95 ± 0.33

A stretch from further up, as a working copy:
Sequence | self-splicing fitness (ln) (30 °C) | self-splicing fitness (ln) (37 °C)
GUGUAGCAAUAUUACGAAUU | -2.33 ± 0.064 | -1.85 ± 0.097
GACGAGCAAUAUUACGACGG |  | -1.93 ± 0.81
CAUGAGCAAUAUUACGCUUA | -3.77 ± 0.43 | -2.19 ± 0.25
UUCUAGCAAUAUUACGUCAC | -4.66 ± 0.59 | 
CCAGAGCAAUAUUACGCACC | -4.59 ± 0.59 | 
UGUGAGCAAUAUUACGCCAU | -0.868 ± 1 | -2.87 ± 0.75

The list goes on.

Sequence | self-splicing fitness (ln) (30 °C) | self-splicing fitness (ln) (37 °C)
UUAAAGCAAUAUUACGUGGC | -3.08 ± 0.15 | -2.98 ± 0.3
CUUAAGCAAUAUUACGGACG | -0.229 ± 0.085 | 0.228 ± 0.12
GCAGAGCAAUAUUACGCAAU | -4.13 ± 0.61 | 
ACCCAGCAAUAUUACGUUUA | -1.57 ± 0.066 | -1.01 ± 0.072
CGUGAGCAAUAUUACGAACG |  | -1.45 ± 0.51
UUGAAGCAAUAUUACGGGCG | -0.128 ± 0.061 | 0.407 ± 0.084
UAAGAGCAAUAUUACGGGGA | -3.9 ± 1 | -2.45 ± 0.54
CGUGAGCAAUAUUACGGUUC | -3.34 ± 0.74 | -4.62 ± 1
GUAUAGCAAUAUUACGAGUC | -3.65 ± 0.38 | -0.711 ± 0.19
GACGAGCAAUAUUACGUUAC | -4.22 ± 0.52 | 
CCCGAGCAAUAUUACGGACC |  | -4.55 ± 0.72
GGAAAGCAAUAUUACGCCUG |  | -1.27 ± 0.55
GACUAGCAAUAUUACGCAAA | -1.49 ± 0.15 | -1.88 ± 0.23
UACAAGCAAUAUUACGCGGG | -2.43 ± 0.086 | -1.25 ± 0.099
UCGGAGCAAUAUUACGGGAA | -1.04 ± 0.76 | 
GGAUAGCAAUAUUACGUCAU | -2.02 ± 0.11 | -0.395 ± 0.12
AUUGAGCAAUAUUACGUCGC | -4.73 ± 1 | 
UACGAGCAAUAUUACGACCC | -3.21 ± 1.1 | 0.0981 ± 1.2
AGGAAGCAAUAUUACGCCGC | -1.48 ± 0.76 | -1.03 ± 0.93
GGGUAGCAAUAUUACGAUAG |  | -2.87 ± 0.54
AUUAAGCAAUAUUACGGGCC | -0.135 ± 0.87 | -0.681 ± 1.4
CGGAAGCAAUAUUACGCGCC | -4.98 ± 0.73 | 
ACUGAGCAAUAUUACGAGUA | -3.03 ± 0.61 | 

Sequence | self-splicing fitness (ln) (30 °C) | self-splicing fitness (ln) (37 °C)
ACAGAGCAAUAUUACGGCCC |  | -1.61 ± 0.59
CAUUAGCAAUAUUACGGUCC | -4.15 ± 0.6 | 
UGUGAGCAAUAUUACGAGCC |  | -2.71 ± 0.62
GAGCAGCAAUAUUACGCUCU | -3.46 ± 0.28 | -3.34 ± 0.6
CUCAAGCAAUAUUACGUGCC | -2.96 ± 0.11 | -2.29 ± 0.17
GGUGAGCAAUAUUACGAGCU | -1.32 ± 1.4 | 
UGGUAGCAAUAUUACGGAGC | -4.04 ± 1.1 | 
AUAUAGCAAUAUUACGACUU | 0.217 ± 0.073 | -0.272 ± 0.075
ACGGAGCAAUAUUACGCCAC | -2.9 ± 0.67 | -1.61 ± 0.51
CUGAAGCAAUAUUACGGAAC | -4.55 ± 0.52 | 
UCGGAGCAAUAUUACGGCCG |  | -0.784 ± 0.55
UGUAAGCAAUAUUACGACCA | 0.386 ± 0.12 | 0.0758 ± 0.19
GUACAGCAAUAUUACGCCGA | -4.27 ± 0.73 | 
UCUUAGCAAUAUUACGCUGC | -4.21 ± 0.73 | -2.39 ± 0.56
CUUUAGCAAUAUUACGCAGG |  | -2.59 ± 0.62
CAUGAGCAAUAUUACGGGCU | -3.53 ± 0.16 | -2.11 ± 0.15
CAGGAGCAAUAUUACGUCUC | -5.49 ± 1 | 
AAAUAGCAAUAUUACGCGGC | -4 ± 0.59 | 
UCUAAGCAAUAUUACGUAGA | -1.2 ± 0.098 | -0.771 ± 0.15
CUCCAGCAAUAUUACGGCGU | -3.61 ± 0.17 | -3.4 ± 0.23
GAAUAGCAAUAUUACGCUUC | -4.01 ± 0.53 | 
UCUGAGCAAUAUUACGUUCG | -4.14 ± 0.73 | -2.76 ± 1.1
UGAUAGCAAUAUUACGAAUC | -2.44 ± 0.63 | -2.88 ± 0.75

Sequence | self-splicing fitness (ln) (30 °C) | self-splicing fitness (ln) (37 °C)
AAGGAGCAAUAUUACGUCGC | -3.93 ± 0.6 | 
AAUAAGCAAUAUUACGCCCC | 0.198 ± 0.2 | -0.311 ± 0.24
UCUUAGCAAUAUUACGCCUA | -3.12 ± 0.66 | -2.71 ± 0.41
CAGGAGCAAUAUUACGUUCU | -4.15 ± 0.2 | -2.05 ± 0.14
CCCUAGCAAUAUUACGGGCG | -1.68 ± 0.089 | -0.597 ± 0.1
UUUGAGCAAUAUUACGAGUA | -3.35 ± 0.74 | 
GUCGAGCAAUAUUACGUGCU | -3.3 ± 0.62 | -3.27 ± 0.73
AUGGAGCAAUAUUACGUACA | -1.81 ± 0.66 | -0.842 ± 0.62
CUGAAGCAAUAUUACGCCCG | -0.0662 ± 0.23 | 0.309 ± 0.24
UGCAAGCAAUAUUACGUCGU | -3.58 ± 0.22 | -1.81 ± 0.17
GCGAAGCAAUAUUACGAGGC | -4.45 ± 1 | 
GCGGAGCAAUAUUACGGAAG | -3.53 ± 0.6 | 
UCCUAGCAAUAUUACGAUUC | -4.12 ± 0.73 | 
ACCGAGCAAUAUUACGCAGC | -4.02 ± 0.47 | -2.84 ± 0.48
CUAAAGCAAUAUUACGACUG | 0.0292 ± 0.098 | 0.417 ± 0.12
CGGUAGCAAUAUUACGCACA | -0.755 ± 0.26 | -0.0778 ± 0.19
AUGAAGCAAUAUUACGGUAC | -1.71 ± 0.14 | -0.139 ± 0.13
UUGGAGCAAUAUUACGAUCU | -2.06 ± 0.66 | -2.47 ± 1.1
GAUUAGCAAUAUUACGGUCC |  | -2.9 ± 0.75
GUCUAGCAAUAUUACGCCAG |  | -2.57 ± 1.1
CUGGAGCAAUAUUACGAGUC |  | -1.85 ± 0.67
UUGCAGCAAUAUUACGAUAU | -4.06 ± 0.32 | -1.78 ± 0.24
